We go through 65 compounds from PubChem BioAssay AID2685 (National Center for Advancing Translational Sciences (NCATS), 2010).

Some of the results follow. These are further read-outs of the screen, such as a control signal, another cell line or another target. No call is given for them. Most of these compounds were active or inconclusive in the main read-out, so they are no random draw. The note in brackets gives the kind of curve behind each potency; many fits are weak.

The nature of this assay: qHTS Assay for Lipid Storage Modulators in Drosophila S3 Cells.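 As to cell number change: cells counted by Cell Tracker Red CMTPX staining in the red channel.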 Particulars: BODIPY lipid droplet fluorescence, 18-24 h; for cell number change: measured here: cell count max response, cells fed with added oleic acid. Summed up:
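Laser-scanning cytometry quantifies lipid droplet accumulation (500–530 nm total intensity; droplet/cell object ratio) in oleic acid-fed (400 uM added) Drosophila S3 cells treated with a concentration series. 20 uM Triacsin C defined 100% inhibition.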

Setting [1] is: measured here: lipid fluorescence (Fed channel) AC50, cells fed with added oleic acid.
Setting [2] is: measured here: cell number channel AC50, cells fed with added oleic acid.

`COc1ccc(NC(=O)/C(=C\c2ccc(F)cc2)NC(=O)c2ccco2)cc1`: the cell number change was -23%. As to `CC(C)C[C@H](NC(=O)NCc1ccc(Cl)cc1)C(=O)O`, the AC50 under setting [1] was 7.31 µM [falling, partial curve].

Consider `CCOC(=O)c1c(CN2CCOCC2)n(-c2ccccc2)c2ccc(O)cc12`, for which the cell number change was found to be 13.8%. Besides, under setting [1], the AC50 was 18.4 µM [rising, partial curve]. In the case of `O=C(N/N=C/c1ccc(OC(F)F)cc1OC(F)F)c1ccc(Br)cc1`, the cell number change was -1.58%. In addition, the AC50 under setting [1] was 1.84 µM [rising, full curve]. Take `COc1ccccc1-c1cc(C(F)(F)F)nc(N2CCCCC2)n1`: the cell number change worked out at 28.4%. Regarding `COc1cc(C(C)=O)ccc1OCC(O)CN1CCN(S(=O)(=O)c2ccccc2)CC1` (stereo not drawn), the cell number change is 7.1%. Take `Cc1ccc(-n2c(=O)[nH]cc(C(=O)Nc3ccc4c(c3)OCO4)c2=O)cc1C`: the AC50 under setting [2] is 1.84 µM [rising, partial curve]. With `C/C(CC(O)c1ccc2ccccc2n1)=N/O` (stereo not drawn), under setting [1], the AC50 was 7.31 µM [falling, partial curve]. As to `CC1=NC(C(F)(F)F)(C(F)(F)F)C2=C(CC(C)(C)CC2=O)N1Cc1ccco1`, the cell number change was -9.18%. Besides, under setting [2], the AC50 was 0.58 µM [falling, full curve, poor fit]. Further, the AC50 under setting [1] was 3.26 µM [falling, single point]. On to `NC(=O)c1ccc(NC(=O)CSc2nc3ccccc3c(=O)n2CCCN2CCOCC2)cc1`, for which the cell number change is -15.1%. Regarding `CC(=O)C(C(C)=O)C(c1ccccc1)c1nc2ccccc2[nH]c1=O` (stereo not drawn), the cell number change was 92.3%. The AC50 under setting [2] was 29.1 µM [rising, partial curve, poor fit].

As for `CCC(=O)Oc1ccc(C(=O)Nc2ccc3c(c2)OCO3)cc1`, the cell number change was -13.6%. The half-maximal activity concentration (AC50) under setting [1] is 29.1 µM [falling, single point]. Regarding `COC(=O)c1ccc(Nc2ncnc3sccc23)cc1`, the cell number change was 66.7%. In addition, the AC50 under setting [2] is 29.1 µM [rising, single point]. In the case of `O=c1c2ccccc2c(C=NC2CCS(=O)(=O)C2)c(O)n1-c1ccccc1` (stereo not drawn), the cell number change was 1.67%. The AC50 under setting [1] is 0.164 µM [rising, full curve, poor fit]. `O=C(c1ccccc1SCc1ccccc1)N1CCOCC1`: the cell number change is -39.2%. Also, the AC50 under setting [2] was 32.6 µM [falling, single point]. Further, the AC50 under setting [1] was 29.1 µM [falling, single point]. Take `O=C(Nc1sc2c(c1C(=O)O)CCC2)c1ccco1`: the cell number change was 33.6%. Under setting [2], the AC50 was 0.651 µM [rising, full curve, poor fit]. For the same compound, the AC50 under setting [1] was 0.013 µM [falling, full curve].

Regarding `CC1CCCN(c2nc3c(c(=O)[nH]c(=O)n3C)n2CCCc2ccccc2)C1` (stereo not drawn), under setting [1], the AC50 is 6.51 µM [falling, single point]. With `CCOC(=O)C1=C(C)NC(C)=C(C(=O)OCC)C1C(=O)OCC(=O)N(C)C`, the cell number change came out at 5.86%. For the same compound, under setting [1], the AC50 was 0.0058 µM [falling, full curve, poor fit]. In the case of `COc1ccc(-c2cn3cccnc3n2)cc1NC(=O)c1cc(OC)c(OC)c(OC)c1`, the cell number change was -23.8%. As for `O=C(NC1CCN(C(=S)Nc2ccc(Cl)cc2)CC1)c1ccco1`, the cell number change amounted to 3.85%. Besides, under setting [2], the AC50 is 6.51 µM [rising, single point].

`CN1CCN(C(=O)c2cc3ccccc3cc2O)CC1`: the cell number change amounted to 2.47%.

With `CC(=O)c1ccc([N+](=O)[O-])c(CS(=O)(=O)c2ccccc2)c1`, the cell number change was -18.1%. Consider `O=C(COC(=O)c1ccc(O)cc1O)NC1CC1`, for which the cell number change is -4.64%. Also, the AC50 under setting [1] was 5.8 µM [rising, single point]. As for `Cc1ccccc1C(=O)N1CCC(C(=O)Nc2ccc3c(c2)OCO3)CC1`, the cell number change was found to be 11.1%. For the same compound, under setting [1], the concentration at half-maximal activity (AC50) was 0.0651 µM [rising, full curve, poor fit]. As for `O=C(c1cc(-c2ccc(Cl)cc2Cl)on1)N1CCCC1`, the cell number change was 5.22%. Moreover, under setting [1], the AC50 was 2.91 µM [rising, single point]. Consider `COc1ccccc1CCNC(=O)C1CCC(=O)N(Cc2cccc(F)c2)C1` (stereo not drawn), for which the cell number change is 19.5%. Besides, the AC50 under setting [2] was 0.00517 µM [rising, full curve, poor fit].

Regarding `CCOC(=O)c1ccc(NC(=S)N2CCN(C)CC2)cc1`, the cell number change was -34.3%. The AC50 under setting [2] was 0.0651 µM [falling, full curve, poor fit]. In the case of `O=C(Nc1ccc(Br)cc1F)C1CC(=O)N(C2CCCCC2)C1` (stereo not drawn), the cell number change was determined as 7.46%.

Regarding `CC(=O)N1CCN(c2ccccc2NC(=O)COc2cc(C)ccc2C(C)C)CC1`, the cell number change was 129%. Moreover, under setting [2], the AC50 is 2.06 µM [rising, full curve].

As to `CCOC(=O)C1=C(N)Oc2c(oc(CO)cc2=O)C1c1ccccc1` (stereo not drawn), the AC50 under setting [1] is 0.0291 µM [rising, full curve]. Regarding `CCC(=O)N1CCCc2cc(S(=O)(=O)NCc3cccs3)ccc21`, the cell number change worked out at 0.271%. In addition, the AC50 under setting [1] is 11.6 µM [rising, partial curve]. In the case of `COc1cccc(OC)c1NC(=O)C1CCCN1C(=O)NCc1ccccc1` (stereo not drawn), the AC50 under setting [1] was 16.4 µM [falling, partial curve]. Take `O=C(NC1CC1)c1ccc(CS(=O)c2ccc(Br)cc2)o1` (stereo not drawn): the cell number change worked out at 1.65%. In the case of `O=C(CN1CCN(c2ccccc2O)CC1)Nc1cc(S(=O)(=O)N2CCCC2)ccc1Cl`, the AC50 under setting [1] was 4.61 µM [falling, full curve, poor fit]. For the compound `O=C(CN1CCN(Cc2ccccc2)CC1)Nc1ccc(N2CCOCC2)cc1`, the AC50 is, setting by setting: under setting [2], 1.46 µM [falling, full curve]; under setting [1], 1.46 µM [falling, full curve]. As for `CCOC(=O)c1ccc(NC(=O)CCc2ccc(CC)o2)cc1`, the cell number change was found to be 0.107%. Under setting [1], the AC50 was 3.26 µM [falling, single point].

`Cc1sc2ncnc(SCC(=O)c3ccc4c(c3)OCCO4)c2c1-c1ccccc1`: the cell number change amounted to 9.21%. The AC50 under setting [1] was 10.3 µM [rising, partial curve, poor fit]. Take `Cc1cc(C)cc(NS(=O)(=O)c2ccc(NC(=S)Nc3ccccc3)cc2)c1`: the cell number change was -66.7%. Moreover, the AC50 under setting [2] is 1.84 µM [falling, partial curve].

Take `O=C(Nc1cccc(F)c1)NC1CCCc2ccccc21` (stereo not drawn): the cell number change stood at 35%. For the same compound, the AC50 under setting [2] was 17.8 µM [rising, partial curve, poor fit]. Regarding `O=C(/C=C/c1cccnc1)c1ccc(O)cc1`, the cell number change was -58.1%. Further, the AC50 under setting [2] was 3.26 µM [falling, partial curve, poor fit]. For the same compound, the AC50 under setting [1] was 5.17 µM [falling, partial curve, poor fit]. Consider `CN(C)CCNC(=O)c1onc(CSc2nc3ccccc3[nH]2)c1C(=O)NCCN(C)C`, for which the cell number change stood at 6.29%.

As to `Cc1cc(OCC(=O)N2CCC[C@@H]2C(=O)O)c2c(C)c(C)c(=O)oc2c1`, the cell number change worked out at 14.6%.

Take `N#Cc1ccc(C(=O)NC2CCCCCCC2)cc1`: the cell number change is -1.68%.

As for `Cc1c(C(=O)Nc2ccccc2N2CCOCC2)sc2nc3n(c(=O)c12)CCC3`, the cell number change stood at 0.593%. For `COCCN(Cc1ccccc1)C(=O)c1ccc(C(=O)c2ccccc2)cc1`, the cell number change was -0.912%. Also, the AC50 under setting [1] was 6.51 µM [falling, single point]. On to `CCCC(C(=O)Nc1ccc2c(C)cc(=O)oc2c1)c1ccccc1` (stereo not drawn), for which the cell number change was 27%. For the same compound, the AC50 under setting [2] is 1.3 µM [rising, full curve, poor fit]. Regarding `CC(=O)N1c2ccc(S(=O)(=O)NCCC(=O)Nc3ccc(C)c(Cl)c3)cc2CC1C` (stereo not drawn), the cell number change was -22.5%. Further, under setting [2], the AC50 is 6.51 µM [falling, partial curve]. With `CCCCOc1ccc(CSc2ncn[nH]2)cc1`, the cell number change is -18.8%. For the same compound, under setting [1], the AC50 was 8.2 µM [rising, single point]. Take `CCOC(=O)c1cc(-c2ccccc2C)n(Cc2cc(C)no2)n1`: the cell number change was 0.453%. Besides, the half-maximal activity concentration (AC50) under setting [2] was 1.16 µM [falling, single point]. Further, the AC50 under setting [1] was 1.16 µM [falling, single point]. Turning to `Cc1ccc(C(=O)O)cc1S(=O)(=O)N1CCOCC1`, the cell number change is -34.4%. Also, the AC50 under setting [2] was 0.651 µM [falling, full curve, poor fit]. For the same compound, under setting [1], the AC50 is 29.1 µM [falling, single point].

As to `C/C(=N\N=c1/scc(C)n1Cc1ccco1)c1cccc([N+](=O)[O-])c1`, the cell number change is -21.8%. Regarding `Cc1cc(C)c2nc(N3C(=O)C(O)=C(C(=O)c4ccco4)C3c3ccco3)sc2c1` (stereo not drawn), the cell number change was 15.7%. Also, the AC50 under setting [1] was 0.58 µM [rising, single point]. Take `COc1ccc(/C=N/NC(=O)CN(C2=NS(=O)(=O)c3ccccc32)c2ccccc2)cc1OC`: the cell number change was -1.04%. Also, under setting [1], the half-maximal activity concentration (AC50) is 6.51 µM [rising, single point]. For the compound `Cc1ccc(OCc2nc(-c3ccccc3)no2)cc1`, the cell number change amounted to 28.1%. Also, the AC50 under setting [1] was 0.146 µM [falling, full curve, poor fit].

In the case of `S=C(NCc1ccccc1)NC1CCCc2ccccc21` (stereo not drawn), the cell number change is -41.8%. On to `CCOC(=O)CSc1nc2c(c(=O)[nH]c(=O)n2C)n1C/C=C(/C)Cl`, for which the cell number change is -8.33%. Moreover, the half-maximal activity concentration (AC50) under setting [1] is 0.92 µM [falling, full curve].

Turning to `CCOc1cc(C(=O)OCc2ccc(OC)cc2)ccc1OCC(=O)N1CCOCC1`, the cell number change was determined as 44.5%. Also, the AC50 under setting [2] is 16.4 µM [rising, single point]. For the compound `CCOc1ccc(NC(=O)COc2ccc(-n3cnnn3)cc2)cc1`, the cell number change is -55.5%. In addition, the AC50 under setting [2] is 9.2 µM [falling, partial curve]. Further, the AC50 under setting [1] is 4.61 µM [falling, single point]. On to `Cc1ccc(NS(=O)(=O)c2ccc(NC(=O)CN(c3cc([N+](=O)[O-])ccc3C)S(C)(=O)=O)cc2)c(C)c1`, for which the cell number change is -10.1%. As to `CN(C)C(=O)c1ccc(NC(=O)COC(=O)/C=C/c2cccs2)cc1`, the cell number change is -4.06%. Also, the AC50 under setting [1] is 2.59 µM [rising, single point]. With `COc1cccc2cc(-c3nnc(SCC(=O)Nc4nc(C)cs4)n3C)oc12`, the cell number change is -73.9%. Moreover, under setting [2], the AC50 is 20.6 µM [falling, partial curve]. Further, the AC50 under setting [1] was 20.6 µM [falling, partial curve]. Consider `O=C(NCc1ccccc1)c1ccc2nccnc2c1`, for which the AC50 under setting [1] is 0.58 µM [falling, single point]. With `O=C1OC(/C(=C\NCc2ccccc2)[N+](=O)[O-])c2ccccc21` (stereo not drawn), the cell number change is -16.9%. The AC50 under setting [1] was 0.651 µM [falling, partial curve, poor fit]. In the case of `COc1ccc(-n2ncc3c(NCCN4CCOCC4)ncnc32)cc1`, the cell number change amounted to 0.809%. In the case of `CCOC(=O)c1c(C)[nH]c(C(=O)C(C)OC(=O)c2cnc(C)cn2)c1C` (stereo not drawn), the cell number change is -10.4%. Moreover, under setting [1], the AC50 was 6.51 µM [falling, single point].
